# PubChem BioAssay AID1259425, University of Nebraska Medical Center | 2018
# Purpose: 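Find knockdowns that reproduce the gene expression pattern seen when KSR1 is lost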 (primary screen)
# Cells: HCT116 human colon cancer cells
# Reagent: siRNA pool against human genes, 50 nM siRNA
# Measurement: 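After 50 nM siRNA pool, branched-DNA assay measures six marker transcripts per well, minus blank, normalised to the geometric mean of two housekeeping transcripts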
# Direction: BNIP3L mRNA: higher = more BNIP3L transcript after knockdown; NDRG1 mRNA: higher = more NDRG1 transcript after knockdown; BNIP3 mRNA: higher = more BNIP3 transcript after knockdown; ALDOC mRNA: higher = more ALDOC transcript after knockdown; ACSL5 mRNA: higher = more ACSL5 transcript after knockdown
# This is a random part of about 14,000 reagents tested. No sequences are given here. The record does not give: the time to read-out.
gene,"BNIP3L mRNA, set 1","NDRG1 mRNA, set 1","BNIP3 mRNA, set 1","ALDOC mRNA, set 1","ACSL5 mRNA, set 1"
CR1 (complement C3b/C4b receptor 1 (Knops blood group)),0.0578,0.103,0.134,0.0244,0.111
"FURIN (furin, paired basic amino acid cleaving enzyme)",0.0787,0.553,0.333,0.0137,0.205
P3H1 (prolyl 3-hydroxylase 1),0.198,0.538,0.356,0.0272,0.379
CCT7 (chaperonin containing TCP1 subunit 7),0.0808,0.152,0.227,0.0398,0.284
NLGN4Y (neuroligin 4 Y-linked),0.16,0.23,0.336,0.0439,0.171
FXYD1 (FXYD domain containing ion transport regulator 1),0.059,0.209,0.243,0.026,0.119
GNB1 (G protein subunit beta 1),0.145,0.101,0.275,0.0212,0.267
RHOD (ras homolog family member D),0.109,0.321,0.322,0.0555,0.243
UPB1 (beta-ureidopropionase 1),0.105,0.24,0.276,0.0151,0.141
TRADD (TNFRSF1A associated via death domain),0.0821,0.246,0.315,0.0208,0.116
DIS3 (DIS3 exosome endoribonuclease and 3'-5' exoribonuclease),0.0782,0.232,0.265,0.0261,0.207

Next part; the last 2 above are carried over.
gene,"BNIP3L mRNA, set 1","NDRG1 mRNA, set 1","BNIP3 mRNA, set 1","ALDOC mRNA, set 1","ACSL5 mRNA, set 1"
TRADD (TNFRSF1A associated via death domain),0.0821,0.246,0.315,0.0208,0.116
DIS3 (DIS3 exosome endoribonuclease and 3'-5' exoribonuclease),0.0782,0.232,0.265,0.0261,0.207
PRDM10 (PR/SET domain 10),0.166,0.222,0.415,0.0335,0.295
HPS1 (HPS1 biogenesis of lysosomal organelles complex 3 subunit 1),0.0629,0.18,0.313,0.00671,0.0897
FGL2 (fibrinogen like 2),0.068,0.0948,0.307,0.00893,0.161
ZNF410 (zinc finger protein 410),0.117,0.189,0.354,0.00916,0.121
EIF4G2 (eukaryotic translation initiation factor 4 gamma 2),0.201,0.187,0.224,0.0194,0.273
ULK1 (unc-51 like autophagy activating kinase 1),0.0954,0.0899,0.28,0.018,0.247
YAP1 (Yes1 associated transcriptional regulator),0.136,0.0304,0.356,0.00603,0.229
PLA2G2F (phospholipase A2 group IIF),0.192,0.837,0.254,0.0409,0.722
"POLD1 (DNA polymerase delta 1, catalytic subunit)",0.0731,0.095,0.201,0.018,0.16
